Literature values as cited in patent publication US7410553B2, “Building construction felt paper with biocide/anti-microbial treatment” (Atlas Roofing Corporation, priority 2005, dated 2008).
At least one compound was matched to its structure with a doubt left.

Details: cited from earlier work

## O=C1C2CC=CCC2C(=O)N1SC(Cl)(Cl)Cl (centres unmarked) [Vancide 89]
  Health Hazard level by Hazardous Material Information System and NFPA standards: Level 4 Health Hazard
  rating by the OSHA Hazard Communication Standard: Highly Toxic
